# Laboratory results reported in PubChem BioAssay AID2551 (National Center for Advancing Translational Sciences (NCATS), 2010).
# The chains behind the UniProt entries cited, without tags or fusion partners. Where a name states a change or a piece, a line headed by the entry shows the natural chain unless it says otherwise.
# UniProt P51450: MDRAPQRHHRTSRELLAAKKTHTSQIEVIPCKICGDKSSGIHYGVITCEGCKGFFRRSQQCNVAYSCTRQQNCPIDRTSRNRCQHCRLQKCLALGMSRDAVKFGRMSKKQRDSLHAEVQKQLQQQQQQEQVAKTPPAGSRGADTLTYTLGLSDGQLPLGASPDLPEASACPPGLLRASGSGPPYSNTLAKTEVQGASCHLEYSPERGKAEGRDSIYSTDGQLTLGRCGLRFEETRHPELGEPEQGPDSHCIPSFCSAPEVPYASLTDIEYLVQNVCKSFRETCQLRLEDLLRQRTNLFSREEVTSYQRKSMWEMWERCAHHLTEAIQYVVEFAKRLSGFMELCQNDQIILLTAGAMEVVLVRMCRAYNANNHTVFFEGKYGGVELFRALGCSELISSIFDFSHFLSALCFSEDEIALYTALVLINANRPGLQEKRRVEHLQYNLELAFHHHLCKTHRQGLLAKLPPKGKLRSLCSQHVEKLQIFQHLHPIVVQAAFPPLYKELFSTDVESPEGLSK
# The campaign covered roughly 310,000 compounds. About 17,000 (5.5%) were called active. The inconclusive results got no clear call from the source; some entries with a clear call stand among them for comparison. Calls follow the shape of the dose curve; as a rule, active = well fitted inhibition curve with a large enough effect; inconclusive = small, poorly fitted or top-dose-only effect, or effect the other way; inactive = no such curve, though single readings can be large or run the other way. Where the call is inconclusive, the potency comes from a doubtful curve fit.
# Target: Nuclear receptor ROR-gamma (Mus musculus) (UniProt P51450)
# Assay: qHTS for inhibitors of ROR gamma transcriptional activity; also: nearly all actives have a fitted effect of over 60% in size
# Details: Drosophila S2 Gal4-RORgamma UAS-luciferase reporter, 20 h; series mostly up to 53.6 µM
# How it was run: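 Schneider cells (Drosophila), stable Gal4 DBD–ROR gamma + UAS-luc; 1 hr cmpd preincubation; Cu2+ induction 700 uM final; 20 hr ambient; luminescence.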
# Potency is read from the fitted curve at half-maximal effect.
row,SMILES,Potency
1,CC(=O)c1c(C)[nH]c(=S)c(C#N)c1-c1ccc(F)cc1,"inconclusive: 35.5 µM [inhibitor, single point]"
2,O=C(NCCN1CCOCC1)c1ccc2ccccc2c1,inactive
3,COc1ccc(-c2cn3c(n2)CCC3)cc1,"inconclusive: 15.8 µM [inhibitor, single point]"
4,CCOc1cc(C(=O)NC(=S)Nc2cccnc2)cc(OCC)c1OCC,active: 12.6 µM
5,Cc1c(C#N)c(O)[nH]c(=O)c1N=Nc1ccc(Br)cc1C(=O)O,inactive
6,O=C(Nc1ccc(N2CCOCC2)c(Cl)c1)c1ccc(Br)o1,"inconclusive: 22.4 µM [inhibitor, single point]"
7,COc1ccc(C(C)C)cc1S(=O)(=O)N1CCC(C(=O)NCC2CCCO2)CC1 (stereo unspecified),"inconclusive: 20 µM [activator, single point]"
8,CC(C)C[C@H](CO)Nc1nc(N(C)c2cccc(Cl)c2)c2ncn(C(C)C)c2n1,"inconclusive: 12.6 µM [activator, partial curve]"
9,CC(O)C(=O)O (stereo unspecified),inactive
10,CCN1CCC(CNCc2cn(-c3ccc(OC)cc3)nc2-c2ccccc2Cl)C1 (stereo unspecified),"inconclusive: 14.1 µM [inhibitor, single point]"
11,Cc1nn(CCc2n[nH]c(=S)n2-c2ccc(F)cc2)c(C)c1[N+](=O)[O-],"inconclusive: 35.5 µM [inhibitor, single point]"
12,C=CCn1c(-c2csc(-c3ccc(Cl)cc3)n2)n[nH]c1=S,"inconclusive: 0.891 µM [inhibitor, full curve, poor fit]"
13,Cc1nn(-c2ccccc2)c(Cl)c1/C=N/NC(=O)OC(C)(C)C,"inconclusive: 7.94 µM [activator, partial curve]"
14,Cc1ccccc1CCN(C(=O)Cn1nnc2ccccc21)C(C(=O)NC(C)(C)C)c1ccsc1 (stereo unspecified),"inconclusive: 35.5 µM [inhibitor, single point]"
15,CCCCCCCC(=O)OC[C@H](CO)OC(=O)CCCCCCC,inactive
16,COc1ccc(OC)c(NC(=O)C23CC4CC(C2)CC(n2cnc(Br)n2)(C4)C3)c1,inactive
17,COc1ccccc1C1CCN(C(=O)c2ccc(Cl)cc2)CC1,"inconclusive: 0.562 µM [inhibitor, full curve, poor fit]"
18,CC(=O)N1c2c(cc(Br)cc2S(=O)(=O)NCc2ccccc2)CC1C (stereo unspecified),"inconclusive: 10 µM [inhibitor, partial curve]"
19,Cc1occc1C(=O)Nc1ccc2c(c1)OCCO2,active: 8.91 µM
20,O=C(COC(=O)C1CCN(S(=O)(=O)c2cccc3cccnc23)CC1)c1ccc([N+](=O)[O-])cc1,inactive
21,CNC(=S)N/N=C1\CC(c2ccccc2)Oc2ccccc21 (stereo unspecified),"inconclusive: 0.126 µM [inhibitor, full curve, poor fit]"
22,CNc1nc(Nc2ccc([N+](=O)[O-])cc2)nc(OCC(F)(F)F)n1,inactive
23,NC(=S)N/N=C/c1cccnc1,inactive

row,SMILES,Potency
1,O=C(CC1SC(=O)N(c2ccccc2)C1=O)Nc1ccccc1 (stereo unspecified),"inconclusive: 35.5 µM [inhibitor, single point]"
2,COc1ccc(CNc2ccc([N+](=O)[O-])cc2C)cc1,inactive
3,COC(=O)COc1cccc(NC(=O)c2ccc(C)cc2)c1,"inconclusive: 15.8 µM [inhibitor, single point]"
4,COc1ccc(CC(=O)N(CC2CCCO2)c2nc3ccccc3s2)cc1 (stereo unspecified),"inconclusive: 31.6 µM [activator, single point]"
5,CCCOc1cccc(C(=O)NC(=S)Nc2cccc(NC(=O)c3ccccc3Cl)c2)c1,"inconclusive: 5.62 µM [inhibitor, single point]"
6,CN1CCN(c2ccc(NC(=O)c3ccc(Cl)cc3Cl)cc2)CC1,"inconclusive: 0.0562 µM [inhibitor, partial curve]"
7,O=C(N/N=C/c1ccccn1)c1cc(-c2ccc3ccccc3c2)n[nH]1,active: 15.8 µM
8,O=c1c2ccccc2c(=O)n2n1Cc1ccccc1C2,"inconclusive: 0.005 µM [activator, full curve, poor fit]"
9,Cc1ccccc1-c1nc2ccc(Cl)cc2c(=O)n1O,"inconclusive: 15.8 µM [inhibitor, single point]"
10,O=C(Oc1ccccc1)N1CCN(c2ccc(F)cc2)CC1,"inconclusive: 25.1 µM [activator, single point]"
11,CC(c1ccon1)N(C)C(=O)CCc1nnc(Cc2ccc(-c3ccccc3)cc2)o1 (stereo unspecified),"inconclusive: 14.1 µM [activator, single point]"
12,CCOC(=O)c1ccc(NC(=S)NC(=O)COc2ccccc2)cc1,"inconclusive: 35.5 µM [inhibitor, single point]"
13,COc1ccc(C(=O)Nc2ccc3c(c2)OCCO3)cc1[N+](=O)[O-],"inconclusive: 3.98 µM [activator, partial curve, poor fit]"
14,NC(=S)N=Nc1c(O)[nH]c2ccc(F)cc12,active: 4.47 µM
15,CC1CN(S(=O)(=O)c2cccc(C(=O)Nc3ccc4c(c3)CCC4)c2)CC(C)O1 (stereo unspecified),"inconclusive: 20 µM [activator, partial curve]"
16,O=[N+]([O-])c1cc(-c2cnc3ccccc3n2)ccc1Oc1ccc(Cl)cc1,"inconclusive: 8.91 µM [activator, partial curve]"
17,COc1ccc(C2CC(C(F)(F)F)n3nc(C(N)=O)c(Cl)c3N2)cc1OC (stereo unspecified),"inconclusive: 35.5 µM [activator, single point]"
18,Cc1oc(-c2ccccc2F)nc1CS(=O)(=O)CC(=O)NC(C)CCc1ccccc1 (stereo unspecified),inactive
19,COCCN=c1scc(-c2ccccc2)n1/N=C/c1c[nH]c2ccccc12,"inconclusive: 11.2 µM [activator, partial curve]"
20,CC(=O)N1CCC(C(=O)Nc2cc(C)cc(C)c2)CC1,inactive
21,O=C(Nc1cccnc1)c1ccc(Br)s1,"inconclusive: 3.55 µM [activator, partial curve]"
22,Cc1ccc(/C=N/NC(=O)c2ccoc2C)s1,"inconclusive: 17.8 µM [inhibitor, single point]"
23,CC(Sc1nnc(NCc2ccccc2)s1)C(=O)Nc1ccc2c(c1)C(=O)c1ccccc1C2=O (stereo unspecified),inactive

# Compounds shown so far with two or more sulfur atoms, in the order listed:
row,SMILES,Potency
12,C=CCn1c(-c2csc(-c3ccc(Cl)cc3)n2)n[nH]c1=S,"inconclusive: 0.891 µM [inhibitor, full curve, poor fit]"
23,CC(Sc1nnc(NCc2ccccc2)s1)C(=O)Nc1ccc2c(c1)C(=O)c1ccccc1C2=O (stereo unspecified),inactive
